Source: paper doi:10.1101/2021.02.18.431817
No constants are given. Whether binding was seen depends on the method and setting. Some results given as binding are weak or reduced against the parent protein; the word gives no strength. Sequences can lack the tags named with a protein.

Key:
[1] = biological target: T1, SAP2, mating-based split-ubiquitin (mbSUS) fusion (A. thaliana) (UniProt Q8H0X0); assay: two-hybrid
T1 sequence: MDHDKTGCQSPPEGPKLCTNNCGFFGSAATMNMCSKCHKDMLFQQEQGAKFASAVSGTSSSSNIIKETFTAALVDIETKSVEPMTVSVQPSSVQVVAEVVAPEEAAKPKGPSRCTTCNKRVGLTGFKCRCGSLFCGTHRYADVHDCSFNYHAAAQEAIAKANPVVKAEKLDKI

[2] = biological target: T2, SAP3, mating-based split-ubiquitin (mbSUS) fusion (A. thaliana) (UniProt Q9ZNU9); assay: two-hybrid
T2 sequence: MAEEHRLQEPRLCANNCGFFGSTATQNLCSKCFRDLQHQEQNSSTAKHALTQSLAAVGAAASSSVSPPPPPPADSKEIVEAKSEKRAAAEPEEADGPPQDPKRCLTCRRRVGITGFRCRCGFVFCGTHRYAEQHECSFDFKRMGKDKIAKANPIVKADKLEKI

B1: CML49, mating-based split-ubiquitin (mbSUS) fusion (protein, UniProt Q8W4L0 1-335)
chain: MSGYPPSSQGYGYGGNPPPPQPPYGSTGNNPPPYGSSGSNPPPPYGSSASSPYAVPYGAQPAPYGAPPSAPYASLPGDHNKPHKEKPHGASYGSPSPGGYGAHPSSGPSDYGGYGGAPQQSGHGGGYGGAPQQSGHGGGYGAPPPQASYGSPFASLVPSAFPPGTDPNIVACFQAADRDNSGFIDDKELQGALSSYNQSFSIRTVHLLMYLFTNSNVRKIGPKEFTSLFFSLQNWRSIFERFDKDRSGRIDTNELRDALMSLGFSVSPVILDLLVSKFDKSGGRNRAIEYDNFIECCLTVKGLTEKFKEKDTALSGSAIFNYENFMLTVLPFLVA
With B1 as the binder, how does the binding [1] read?
The binding was “binds”.

And the binding [2]?
The binding was “binds”.
